The record followed here is PMC12392869.

By UniProt entry, the sequences of proteins in these tests, tags left out. Where a name states a change or a piece, a line headed by the entry shows the natural chain unless it says otherwise.
UniProt P06756: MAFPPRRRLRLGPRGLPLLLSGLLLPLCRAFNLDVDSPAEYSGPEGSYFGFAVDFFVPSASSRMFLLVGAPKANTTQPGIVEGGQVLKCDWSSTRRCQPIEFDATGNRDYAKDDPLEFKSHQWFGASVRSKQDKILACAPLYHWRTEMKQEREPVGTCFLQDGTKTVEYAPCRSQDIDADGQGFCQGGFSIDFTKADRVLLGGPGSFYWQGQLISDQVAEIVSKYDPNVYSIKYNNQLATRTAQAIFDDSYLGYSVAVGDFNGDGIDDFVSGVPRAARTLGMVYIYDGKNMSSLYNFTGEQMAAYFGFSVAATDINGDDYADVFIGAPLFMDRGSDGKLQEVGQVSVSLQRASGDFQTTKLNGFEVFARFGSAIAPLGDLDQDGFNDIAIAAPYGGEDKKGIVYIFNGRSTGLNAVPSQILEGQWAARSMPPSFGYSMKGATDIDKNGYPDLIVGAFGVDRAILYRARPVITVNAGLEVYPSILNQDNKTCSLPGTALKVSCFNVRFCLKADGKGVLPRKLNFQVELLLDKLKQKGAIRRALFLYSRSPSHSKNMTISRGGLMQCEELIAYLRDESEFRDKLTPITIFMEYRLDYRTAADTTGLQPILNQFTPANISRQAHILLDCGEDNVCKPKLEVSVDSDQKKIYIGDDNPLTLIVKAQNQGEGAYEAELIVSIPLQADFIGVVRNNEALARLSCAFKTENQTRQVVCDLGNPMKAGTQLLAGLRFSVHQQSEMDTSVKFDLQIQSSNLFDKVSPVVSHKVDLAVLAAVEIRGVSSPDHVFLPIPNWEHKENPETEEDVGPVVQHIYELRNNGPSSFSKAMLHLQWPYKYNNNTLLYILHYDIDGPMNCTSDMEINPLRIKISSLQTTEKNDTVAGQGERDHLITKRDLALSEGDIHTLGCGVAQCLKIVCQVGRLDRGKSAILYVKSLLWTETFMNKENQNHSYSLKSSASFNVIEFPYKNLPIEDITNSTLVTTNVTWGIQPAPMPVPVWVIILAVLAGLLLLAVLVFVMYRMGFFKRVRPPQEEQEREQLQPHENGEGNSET

One experiment addresses integrin αvβ8 ectodomain (UniProt P06756). Nature of the experiment: fluorescence polarisation; competition: binder titrated against 10 nM FITC-cyclic-… or FITC-proTGFβ3 peptide bound to soluble integrin ectodomain; HEPES pH 7.5, NaCl, MgCl2, CaCl2, 0.5 mg/mL BSA; 2 h at room temperature; both purified. Background: In fluorescence polarisation assays a small probe gives low polarisation when free and higher when bound to something large.

A further experiment deals with integrin αvβ6 ectodomain (UniProt P06756). The experiment is described as above.

Results are given in words; binding and its absence hold for the method and conditions named. Some binding calls cover weakened binding; strength is not graded here.

As for GRGDLGRLKK (FITC labeled aminocaproic acid) [FITC-proTGFβ3 peptide (FITC labeled aminocaproic acid-… peptide)], the binding result with integrin αvβ8 ectodomain and in the experiment with integrin αvβ6 ectodomain was “binds” each time.
